This is an account of results in article PMC3277884.

Amino acid sequences for entries named in this document (tags omitted).
UniProt Q9CQJ4: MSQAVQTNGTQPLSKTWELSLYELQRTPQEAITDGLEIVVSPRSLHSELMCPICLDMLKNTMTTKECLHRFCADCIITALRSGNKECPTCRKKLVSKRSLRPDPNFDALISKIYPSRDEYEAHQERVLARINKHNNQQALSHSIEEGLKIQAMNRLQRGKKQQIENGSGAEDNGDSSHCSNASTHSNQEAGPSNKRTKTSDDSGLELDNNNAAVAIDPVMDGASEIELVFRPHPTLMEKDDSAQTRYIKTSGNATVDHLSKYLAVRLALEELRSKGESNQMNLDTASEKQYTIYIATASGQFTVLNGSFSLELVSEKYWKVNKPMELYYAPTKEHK

Results are given in words; binding and its absence hold for the method and conditions named. In cells and extracts the contact can be indirect. Here binding means that the protein was enriched with, or labelled near, the bait; the list need not be complete. For some assays here: Where a sequence is shown, tags or fusion partners need not be part of it.

In assay [1] the target is Ring1b (mouse (endogenous in ESCs)) (UniProt Q9CQJ4). The assay is described as follows: affinity purification with mass spectrometry; IP with a monoclonal anti-Ring1b antibody from SILAC-labeled nuclear extracts of ESCs (heavy) and differentiated ESCs (light).
Another assay deals with T1, Cbx7-EGFP, Q8VDS3.
T1 chain: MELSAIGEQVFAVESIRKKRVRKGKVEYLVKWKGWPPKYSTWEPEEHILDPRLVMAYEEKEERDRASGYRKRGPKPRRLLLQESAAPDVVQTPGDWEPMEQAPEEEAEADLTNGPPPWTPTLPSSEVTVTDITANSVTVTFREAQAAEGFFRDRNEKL
Kind of assay: affinity purification with mass spectrometry; GFP IP on GFP nanotrap beads from SILAC-labeled Cbx7-EGFP (heavy) and EGFP (light) ESCs. To be noted: remark: other sources report otherwise.

The target of a further assay is Cbx7-EGFP (UniProt Q8VDS3). The assay is described as above.

B1: Phc1 (protein, UniProt Q64028 1-1010)
chain: METESEQNSSSTNGSSSSGASSRPQIAQMSLYERQAVQALQALQRQPNAAQYFHQFMLQQQLSNAQLHSLAAVQQATIAASRQASSPNSSTAQQQTATTQASMNLATTSAAQLISRSQSVSSPSATTLTQSVLLGNTTSPPLNQSQAQMYLRPQLGNLLQVNRTLGRNVPLASQLILMPNGAVAAVQQEVPPAQSPGVHADADQVQNLAVRNQQASAQGPQMPGSTQKAIPPGASPVSGLSQTSSQALAVAQASSGASGQSLNLSQAGGGSGNSLPGSMGPGGGGQAPGGLGQLPSSGLTGGSCPRKGTGVVQPLPAAQTVTVSQGSQTEAESAAAKKAEADGSGQQSVGMNLTRTATPAPSQTLISSATYTQIQPHSLIQQQQQIHLQQKQVVIQQQIAIHHQQQFQHRQSQLLHTATHLQLAQQQQQQQQQQQQQQQQQQQQQQGTTLTAPQPPQVPPTQQVPPSQSQQQAQTLVVQPMLQSSPLTLPPEPTSKPPIPIQSKPPVAPIKPPQLGAAKMSATQQPPPHIPVQVVGTRQPGSAQAQALGLAQLAAAVPTPRGITGAVQPGQAHLASSPPSSQAAPGALQECPPALAAGMTLAPVQGTAHVVKGGPTASSPVVAQVPAAFYMQSVHLPGKAQTLAVKRKAESEEERDDLSALASVLPTKASPAAESPKVIEEKNSLGEKAEPVASLNANPPNSDLVALAPTPSAPPPTLALVSRQMGDSKPPQAIVKPQILTHIIEGFVIQEGAEPFPVGCSQFLKETKKPLQAGLPTGLNESQPSGPLGGDSPSVELEKKANLLKCEYCGKYAPAEQFRGSKRFCSMTCAKRYNVSCSHQFRLKRKKMKEFQEASYARVRRRGPRRSSSDIARAKIQGKRHRGQEDSSRGSDNSSYDEALSPTSPGPLSVRAGHGERDLGNTITTPSTPELQGINPVFLSSNPSQWSVEEVYEFIASLQGCQEIAEEFRSQEIDGQALLLLKEEHLMSAMNIKLGPALKICAKINVLKET
Take B1: the binding entry in assay [1] is on record as “binds”.

B2: Phc1, Q64028 1-1010 (protein)
chain: METESEQNSSSTNGSSSSGASSRPQIAQMSLYERQAVQALQALQRQPNAAQYFHQFMLQQQLSNAQLHSLAAVQQATIAASRQASSPNSSTAQQQTATTQASMNLATTSAAQLISRSQSVSSPSATTLTQSVLLGNTTSPPLNQSQAQMYLRPQLGNLLQVNRTLGRNVPLASQLILMPNGAVAAVQQEVPPAQSPGVHADADQVQNLAVRNQQASAQGPQMPGSTQKAIPPGASPVSGLSQTSSQALAVAQASSGASGQSLNLSQAGGGSGNSLPGSMGPGGGGQAPGGLGQLPSSGLTGGSCPRKGTGVVQPLPAAQTVTVSQGSQTEAESAAAKKAEADGSGQQSVGMNLTRTATPAPSQTLISSATYTQIQPHSLIQQQQQIHLQQKQVVIQQQIAIHHQQQFQHRQSQLLHTATHLQLAQQQQQQQQQQQQQQQQQQQQQQGTTLTAPQPPQVPPTQQVPPSQSQQQAQTLVVQPMLQSSPLTLPPEPTSKPPIPIQSKPPVAPIKPPQLGAAKMSATQQPPPHIPVQVVGTRQPGSAQAQALGLAQLAAAVPTPRGITGAVQPGQAHLASSPPSSQAAPGALQECPPALAAGMTLAPVQGTAHVVKGGPTASSPVVAQVPAAFYMQSVHLPGKAQTLAVKRKAESEEERDDLSALASVLPTKASPAAESPKVIEEKNSLGEKAEPVASLNANPPNSDLVALAPTPSAPPPTLALVSRQMGDSKPPQAIVKPQILTHIIEGFVIQEGAEPFPVGCSQFLKETKKPLQAGLPTGLNESQPSGPLGGDSPSVELEKKANLLKCEYCGKYAPAEQFRGSKRFCSMTCAKRYNVSCSHQFRLKRKKMKEFQEASYARVRRRGPRRSSSDIARAKIQGKRHRGQEDSSRGSDNSSYDEALSPTSPGPLSVRAGHGERDLGNTITTPSTPELQGINPVFLSSNPSQWSVEEVYEFIASLQGCQEIAEEFRSQEIDGQALLLLKEEHLMSAMNIKLGPALKICAKINVLKET
B2: the binding entry with Cbx7-EGFP, Q8VDS3 was “binds”.

B3: Phc2 (protein, UniProt Q9QWH1 1-850)
chain: MENELPVPHTSNRASVTTNTSGTNSSSGCISSSGGGGGSGGRPTAPQISVYSGIPDRQTVQVIQQALHRQPSTAAQYLQQMYAAQQQHLMLQTAALQQQHLSSAQLQSLAAVQQASLVANRQGSTPGSSVSSQAPAQSSSLNLAASPAAAQLINRAQSVNSAAASGLAQQAVLLGNTSSPALTASQAQMYLRAQMLIFTPTATVATVQPELCTGSPARPPTPAQVQNLTLRTQQTPAAAASGPPPTQPVLPSLALKPTPSSSQPLPAPPQGRTMAQGSPAGAKPSGTDNAPETLKAGDGNCNMEGRPGPGRAVPAVATHPLIAPAYAHLQSHQLLPQPPAKHPQPQFVAQQQPQPPRPAPQVQSQPQLASVSPSLALQSSPEDHALPLGSVTQALPLQCSTTHVHKPGNSQQCHLPTLDTGSQNGHPEGGSHPPQRRFQHTSAVILQVQPASPVTPQQCAPDDWKEVVPAEKSVPVARPGPSPHQQAIIPAIPGGLPGPKSPNIQQCPAHETGQGIVHALTDLSSPGMTSGNGNSASSIAGTAPQNGENKPPQAIVKPQILTHVIEGFVIQEGAEPFPVGRSSLLVGNLKKKYAQGFLPEKPPQQDHTTTTDSEMEEPYLQESKEEGTPLKLKCELCGRVDFAYKFKRSKRFCSMACAKRYNVGCTKRVGLFHSDRSKLQKAGTTTHNRRRASKASLPTLTKDTKKQPSGTVPLSVTAALQLAHSQEDSSRCSDNSSYEEPLSPISASSSTSRRRQGQRDLDLPDMHMRDLVGVGHHFLPSEPTKWNVEDVYEFIRSLPGCQEIAEEFRAQEIDGQALLLLKEDHLMSAMNIKLGPALKIYARISMLKDS
B3: the binding result (in assay [1]; with Cbx7-EGFP) was “binds” throughout.

B4: Mel18 (protein, UniProt P23798 1-342)
chain: MHRTTRIKITELNPHLMCALCGGYFIDATTIVECLHSFCKTCIVRYLETNKYCPMCDVQVHKTRPLLSIRSDKTLQDIVYKLVPGLFKDEMKRRRDFYAAYPLTEVPNGSNEDRGEVLEQEKGALGDDEIVSLSIEFYEGVRDREEKKNLTENGDGDKEKTGVRFLRCPAAMTVMHLAKFLRNKMDVPSKYKVEILYEDEPLKEYYTLMDIAYIYPWRRNGPLPLKYRVQPACKRLTLPTVPTPSEGTNTSGASECESVSDKAPSPATLPATSSSLPSPATPSHGSPSSHGPPATHPTSPTPPSTAAGTTTATNGGTSNCLQTPSSTSRGRKMTVNGAPCPP
On to B4, for which the binding entry in assay [1] is reported as “binds”.

B5: Mel18, P23798 1-342 (protein)
chain: MHRTTRIKITELNPHLMCALCGGYFIDATTIVECLHSFCKTCIVRYLETNKYCPMCDVQVHKTRPLLSIRSDKTLQDIVYKLVPGLFKDEMKRRRDFYAAYPLTEVPNGSNEDRGEVLEQEKGALGDDEIVSLSIEFYEGVRDREEKKNLTENGDGDKEKTGVRFLRCPAAMTVMHLAKFLRNKMDVPSKYKVEILYEDEPLKEYYTLMDIAYIYPWRRNGPLPLKYRVQPACKRLTLPTVPTPSEGTNTSGASECESVSDKAPSPATLPATSSSLPSPATPSHGSPSSHGPPATHPTSPTPPSTAAGTTTATNGGTSNCLQTPSSTSRGRKMTVNGAPCPP
For B5, the binding result with Cbx7-EGFP, Q8VDS3 is “binds”.

B6: Mblr (protein, UniProt Q99NA9 1-353)
chain: MDEAETDATENKRASEAKRASAMPPPPPPPPPISPPALIPAPAAGEEGPASLGQAGAAGCSRSRPPALEPERSLGRLRGRFEDYDEELEEEEEMEEEEEEEEEMSHFSLRLESGRADSEDEEERLINLVELTPYILCSICKGYLIDATTITECLHTFCKSCIVRHFYYSNRCPKCNIVVHQTQPLYNIRLDRQLQDIVYKLVINLEEREKKQMHDFYKERGLEVPKPAAPQPVPSSKGKTKKVLESVFRIPPELDMSLLLEFIGANEDTGHFKPLEKKFVRVSGEATIGHVEKFLRRKMGLDPACQVDIICGDHLLERYQTLREIRRAIGDTAMQDGLLVLHYGLVVSPLKIT
Consider B6, for which the binding result (in assay [1]; in the assay with Cbx7-EGFP) was “binds” in each case.
